We go through 42 sequences from PMC7819943, “Rice protein-binding microarrays: a tool to detect cis-acting elements near promoter regions in rice”.

The other results are listed elsewhere or left out.

The experiment concerns the target T1, OsSMF1 (Oryza sativa, UniProt Q6ZLB0 1-436).
T1 sequence: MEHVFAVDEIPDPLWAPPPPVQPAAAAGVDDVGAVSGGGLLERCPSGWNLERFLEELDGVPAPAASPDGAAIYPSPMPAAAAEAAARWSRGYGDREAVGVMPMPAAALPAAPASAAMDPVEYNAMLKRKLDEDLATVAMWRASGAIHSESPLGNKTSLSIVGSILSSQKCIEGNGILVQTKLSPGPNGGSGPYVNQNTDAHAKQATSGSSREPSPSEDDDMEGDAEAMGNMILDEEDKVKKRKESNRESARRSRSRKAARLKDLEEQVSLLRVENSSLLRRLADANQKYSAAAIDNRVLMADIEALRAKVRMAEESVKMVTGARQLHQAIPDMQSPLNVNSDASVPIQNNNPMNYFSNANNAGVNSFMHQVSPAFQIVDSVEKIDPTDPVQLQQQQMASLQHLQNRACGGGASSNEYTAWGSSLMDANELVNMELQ
In words: protein-binding microarray (RPBM); PBS, 2% BSA, 51.3 ng/ul salmon testes DNA, 50 uM zinc acetate, 200 nM TF, 25 C, 1 h; high values mean tight binding. Particulars: protein: recombinant; tags: N-terminal polyhistidine and DsRed monomer fusion (pET32a); chain copies: 2; label: CyDye5-dUTP incorporated in the synthesized complementary strand; 3' TTTTT single-stranded linker to array surface; dsDNA, one strand shown. In outline: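 Polyhistidine-tagged DsRed fusions of transcription factors, joined at the N-terminus, were expressed in E. coli BL21-CodonPlus and isolated on Ni–NTA. They were incubated at 200 nM for 1 h at 25 °C on a custom Agilent array, double-stranded and BSA-blocked, in PBS with 2% BSA, salmon testes DNA and 50 µM zinc acetate. The binding signal is per-feature fluorescence intensity (arbitrary units) read on an Axon 4000B scanner after washing.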
On to “AATGAAAACAAGTGAGAGCAATAATGCCACGTACGTACACCGGAGTCACCTAGTGCAG”, for which the binding signal was 9150 fluorescence intensity (a.u.).

With “GTTACGACTTATAACATTCCTTGTCCTGTACTTCTTCTTGCGGAGTCACCTAGTGCAG”, the binding signal was 3250 fluorescence intensity (a.u.). The result for “CGTTTCTCGTCGCGTCACGCTATCACCCTTGACATCATCACGGAGTCACCTAGTGCAG” reads 6710 fluorescence intensity (a.u.); that for “AGAGTACTTTTGGGGTTACAAGTCAACATGAGTCAACACTCGGAGTCACCTAGTGCAG”, 4180 fluorescence intensity (a.u.).

For “AAATCCTGAACAGTGGAGTTACCACAGGGATGTGCTGTCCCGGAGTCACCTAGTGCAG”, the binding signal was 3510 fluorescence intensity (a.u.). Consider “CATGTGGTGCAGCGAGGTGACTTTGGATTCCTTCAAACGTCGGAGTCACCTAGTGCAG”, for which the binding signal was 3170 fluorescence intensity (a.u.).

On to “GAATTTCCAAAGTTTAACCACCAGGTCATCATAAAACGAACGGAGTCACCTAGTGCAG”, for which the binding signal is 3290 fluorescence intensity (a.u.). Take “TTGACTGAACTGCCATGTGTATGCCACGTAGACCAAAACCCGGAGTCACCTAGTGCAG”: the binding signal was 11600 fluorescence intensity (a.u.).

“CCACCAGCCCGGTGGGATCCCGCCACGTCAGCGTGACCCGCGGAGTCACCTAGTGCAG”: the binding signal is 22600 fluorescence intensity (a.u.). Regarding “TATGACCTTGAGTTACCGAAGTCTGCGTCGTTTTGTACTACGGAGTCACCTAGTGCAG”, the binding signal was 3210 fluorescence intensity (a.u.).

With “CCAACTCCCTTTCGACATCGATTCTTCTTATCCGCCTCCCCGGAGTCACCTAGTGCAG”, the binding signal was 3250 fluorescence intensity (a.u.). In the case of “CTTGACTCTTGAGCGAAGAATACGGTCACATGCATATTTGCGGAGTCACCTAGTGCAG”, the binding signal was 3950 fluorescence intensity (a.u.). With “GATAACATGGCCTAGATGGATGAGTTAAACCAAAGCACCTCGGAGTCACCTAGTGCAG” the figure was 3690 fluorescence intensity (a.u.); with “TACTGCTGACACGTGGACGGCACTCCCAGATATTTGCGCTCGGAGTCACCTAGTGCAG”, 15800 fluorescence intensity (a.u.). Regarding “CGGGGTTGTCTTCACCTGCGACGCGGTGGTGCACGGTGGGCGGAGTCACCTAGTGCAG”, the binding signal is 3770 fluorescence intensity (a.u.). “TTATATATAGGGGAGGTTTTGTTTACCACGGTGTGCTTTGCGGAGTCACCTAGTGCAG”: the binding signal was 3960 fluorescence intensity (a.u.).

As for “TCCTCTCCGACTCCGAGGCCACCGTGTGCATGCTCATGGACGGAGTCACCTAGTGCAG”, the binding signal was 4120 fluorescence intensity (a.u.). For the sequence “GACGCTGACGACTTCACTCCACTCCACGCCCTCCTTCCCCCGGAGTCACCTAGTGCAG”, the binding signal was 3870 fluorescence intensity (a.u.). As to “AACAGCCACGTCCCGCCGCGCGTCGCACGTCCGCGCCACGCGGAGTCACCTAGTGCAG”, the binding signal is 6260 fluorescence intensity (a.u.). Consider “TTCTCCTCTTCTCGCGCGGCTCGTTATATTCTCGTCATCACGGAGTCACCTAGTGCAG”, for which the binding signal was 4730 fluorescence intensity (a.u.). For the sequence “CCGTCGTCGCTGGGATGCGGCGTTGACATGGACGAGTTCGCGGAGTCACCTAGTGCAG”, the binding signal was 3530 fluorescence intensity (a.u.).

Take “ACCATTGCGTTGGCCATGATGACAGTCACCTCCATACCCGCGGAGTCACCTAGTGCAG”: the binding signal is 4120 fluorescence intensity (a.u.). The result for “AAACAGCACGAATTCAATGTACAAATGATGTCATATAGTGCGGAGTCACCTAGTGCAG” reads 7660 fluorescence intensity (a.u.); that for “CCATTGTTGTCATGAAGAATTGATATCTCAAGCAACCAAACGGAGTCACCTAGTGCAG”, 36000 fluorescence intensity (a.u.).

Take “AATTATATAGATAAGTGCAGTACACGTAAGTACGTGACAGCGGAGTCACCTAGTGCAG”: the binding signal was 6720 fluorescence intensity (a.u.). “TGCGGCGGTTGGAGCGGGTGCTGCAGCGGCGAACACGACGCGGAGTCACCTAGTGCAG”: the binding signal is 3140 fluorescence intensity (a.u.). With “GTTTCTTCTCCTTCTCCTCGTCGGCATCCTGGTCATCGTCCGGAGTCACCTAGTGCAG” the figure was 7800 fluorescence intensity (a.u.); with “TTTGCGAGTAAACTATTTACTCTTGGTGATGTGGATAAATCGGAGTCACCTAGTGCAG”, 6810 fluorescence intensity (a.u.). For “GGCGGCGGTGATTCGGGGATGCGGCGCGGCGGGGAGGAGGCGGAGTCACCTAGTGCAG”, the binding signal is 3860 fluorescence intensity (a.u.).

“GCCGTGCCGCCACGTTCCACGCCAACCTCGCCGGCCGCGCCGGAGTCACCTAGTGCAG”: the binding signal is 3360 fluorescence intensity (a.u.). Consider “CCAAGGTAAAATATGATCTAAATCTACATTTTACAAACTTCGGAGTCACCTAGTGCAG”, for which the binding signal was 3240 fluorescence intensity (a.u.). With “TTATACATCATCAGAGGAAATGCTGACTCCATTATTTGTGCGGAGTCACCTAGTGCAG”, the binding signal was 3870 fluorescence intensity (a.u.).

As for “TTGGAAGCAAATAAAAGTACACGTCATGTATCCAAATATACGGAGTCACCTAGTGCAG”, the binding signal was 4730 fluorescence intensity (a.u.). Consider “CGGACCACACACTTACACGTGGGTCCCAGCTAAACCACAGCGGAGTCACCTAGTGCAG”, for which the binding signal was 5850 fluorescence intensity (a.u.). With “ACTAAATCCTCAACCACCTCATATGTTTATGTACCATCGACGGAGTCACCTAGTGCAG” the figure was 3510 fluorescence intensity (a.u.); with “TCCATTCCAGCCGCAGCGCGCGTTGACCCACCGCAATGCACGGAGTCACCTAGTGCAG”, 3250 fluorescence intensity (a.u.); with “GAGAGCATGCACGCGCTGTCGTGGTGCCTCTCCAACGTGGCGGAGTCACCTAGTGCAG”, 7770 fluorescence intensity (a.u.). Take “ACCTCACGCCCCTCGTGCCGCATGTGCATACATACGTCTGCGGAGTCACCTAGTGCAG”: the binding signal was 4690 fluorescence intensity (a.u.). With “CGGCCGGCGAGATAAGATAAGCAGCTAGCAGGGAGTGGCCCGGAGTCACCTAGTGCAG” the figure was 3280 fluorescence intensity (a.u.); with “TGTACACGTCATCTAAATATGACGTGGAAAGATTATGCATCGGAGTCACCTAGTGCAG”, 27000 fluorescence intensity (a.u.); with “TCAACCGTATCTGACGCCTGCATTTCCTCTACCAGCCAAGCGGAGTCACCTAGTGCAG”, 4010 fluorescence intensity (a.u.). The result for “TCGTTCGATTTCTTGGTCCATTCCTTGTCCGTAGTGTTCTCGGAGTCACCTAGTGCAG” reads 3180 fluorescence intensity (a.u.).
